The results in this text go back to article PMC6747720.

Chains of the proteins cited; added tags and fusions are not shown. Lines headed by an entry give the natural chain unless they say otherwise; changes in a name come on top. Residues count along the entry.
UniProt P20702, residues 20-1107: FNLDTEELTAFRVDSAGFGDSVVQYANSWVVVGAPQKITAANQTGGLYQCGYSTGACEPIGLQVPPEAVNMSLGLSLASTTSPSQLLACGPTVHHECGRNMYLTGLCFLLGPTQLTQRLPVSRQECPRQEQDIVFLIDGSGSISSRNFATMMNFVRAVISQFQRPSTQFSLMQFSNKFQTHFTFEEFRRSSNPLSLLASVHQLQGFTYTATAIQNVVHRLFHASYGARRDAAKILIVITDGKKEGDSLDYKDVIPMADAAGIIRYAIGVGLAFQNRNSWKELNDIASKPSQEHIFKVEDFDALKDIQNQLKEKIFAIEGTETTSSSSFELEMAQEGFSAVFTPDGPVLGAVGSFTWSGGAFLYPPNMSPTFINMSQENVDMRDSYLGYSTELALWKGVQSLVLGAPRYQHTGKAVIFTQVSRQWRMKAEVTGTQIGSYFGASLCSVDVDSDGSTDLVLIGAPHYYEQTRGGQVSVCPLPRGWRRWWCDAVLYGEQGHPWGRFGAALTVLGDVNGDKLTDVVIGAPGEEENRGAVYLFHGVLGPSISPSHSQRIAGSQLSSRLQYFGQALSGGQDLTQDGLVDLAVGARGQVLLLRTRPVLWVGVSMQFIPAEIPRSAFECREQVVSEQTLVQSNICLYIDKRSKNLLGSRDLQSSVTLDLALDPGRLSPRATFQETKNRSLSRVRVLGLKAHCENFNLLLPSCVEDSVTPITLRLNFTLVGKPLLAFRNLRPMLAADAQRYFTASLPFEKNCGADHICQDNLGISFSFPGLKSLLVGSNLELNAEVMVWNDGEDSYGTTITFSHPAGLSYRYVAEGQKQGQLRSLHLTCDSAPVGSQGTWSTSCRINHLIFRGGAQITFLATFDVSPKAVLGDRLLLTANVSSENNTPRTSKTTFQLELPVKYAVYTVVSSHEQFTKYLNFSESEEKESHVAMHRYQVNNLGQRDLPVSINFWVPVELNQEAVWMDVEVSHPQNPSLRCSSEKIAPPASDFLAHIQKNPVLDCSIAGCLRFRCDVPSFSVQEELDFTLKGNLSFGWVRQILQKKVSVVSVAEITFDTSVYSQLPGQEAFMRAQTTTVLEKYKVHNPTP
UniProt P05107, residues 23-700: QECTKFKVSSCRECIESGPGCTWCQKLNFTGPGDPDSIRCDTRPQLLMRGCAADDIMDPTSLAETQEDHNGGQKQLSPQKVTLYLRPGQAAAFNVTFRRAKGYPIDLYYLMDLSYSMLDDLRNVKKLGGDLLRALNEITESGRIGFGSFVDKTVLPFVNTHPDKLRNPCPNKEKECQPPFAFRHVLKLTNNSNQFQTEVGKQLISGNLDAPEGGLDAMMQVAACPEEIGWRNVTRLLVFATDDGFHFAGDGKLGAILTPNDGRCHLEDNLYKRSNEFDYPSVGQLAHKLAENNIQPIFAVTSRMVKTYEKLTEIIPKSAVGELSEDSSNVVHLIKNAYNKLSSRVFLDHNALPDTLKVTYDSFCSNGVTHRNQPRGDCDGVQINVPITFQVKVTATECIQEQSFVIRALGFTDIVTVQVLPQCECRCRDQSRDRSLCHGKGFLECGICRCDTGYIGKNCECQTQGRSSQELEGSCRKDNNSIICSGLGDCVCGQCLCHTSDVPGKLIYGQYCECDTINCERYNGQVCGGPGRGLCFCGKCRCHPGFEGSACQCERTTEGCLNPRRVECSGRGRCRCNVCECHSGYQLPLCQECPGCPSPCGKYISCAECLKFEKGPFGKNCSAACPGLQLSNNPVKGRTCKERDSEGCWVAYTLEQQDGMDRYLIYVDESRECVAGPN
UniProt P09983: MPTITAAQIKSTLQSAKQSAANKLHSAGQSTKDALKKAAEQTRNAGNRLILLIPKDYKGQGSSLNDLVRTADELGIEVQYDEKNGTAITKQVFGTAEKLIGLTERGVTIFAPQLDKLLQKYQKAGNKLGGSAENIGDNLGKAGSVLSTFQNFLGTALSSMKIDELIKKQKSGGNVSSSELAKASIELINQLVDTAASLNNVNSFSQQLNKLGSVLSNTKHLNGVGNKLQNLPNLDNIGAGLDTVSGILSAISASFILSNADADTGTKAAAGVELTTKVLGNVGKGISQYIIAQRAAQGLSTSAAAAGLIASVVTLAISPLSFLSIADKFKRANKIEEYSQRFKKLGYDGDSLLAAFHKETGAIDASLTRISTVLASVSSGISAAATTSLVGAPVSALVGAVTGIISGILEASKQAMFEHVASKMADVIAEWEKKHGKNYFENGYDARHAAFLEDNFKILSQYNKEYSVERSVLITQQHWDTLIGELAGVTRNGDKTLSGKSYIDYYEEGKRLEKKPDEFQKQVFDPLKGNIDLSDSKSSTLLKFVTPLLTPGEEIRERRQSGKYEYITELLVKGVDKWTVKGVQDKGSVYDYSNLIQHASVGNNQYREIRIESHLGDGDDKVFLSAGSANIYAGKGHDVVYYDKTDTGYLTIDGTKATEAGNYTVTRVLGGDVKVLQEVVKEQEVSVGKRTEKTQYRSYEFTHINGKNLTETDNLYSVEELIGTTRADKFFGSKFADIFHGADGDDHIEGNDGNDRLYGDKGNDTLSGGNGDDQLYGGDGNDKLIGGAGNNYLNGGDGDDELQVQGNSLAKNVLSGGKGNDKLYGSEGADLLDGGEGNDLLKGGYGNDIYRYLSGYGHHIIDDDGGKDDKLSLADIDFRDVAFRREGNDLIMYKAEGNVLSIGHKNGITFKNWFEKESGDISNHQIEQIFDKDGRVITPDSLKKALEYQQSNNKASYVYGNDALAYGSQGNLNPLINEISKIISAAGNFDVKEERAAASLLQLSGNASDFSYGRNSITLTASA

Results are given in words; binding and its absence hold for the method and conditions named. For part of these data: Binding calls can cover weak binding; strength is not graded here.

What all share (test): far-Western, overlay or dot blot; 500 ng recombinant integrin heterodimer per lane separated on a 4 to 20% gradient SDS-PAGE gel, transferred to nitrocellulose, blocked in 3% BSA-0.5% Tween 20 in PBS, probed with PEG-precipitated HlyA or LtxA at 1 μg/ml for 1 h at room temperature; bound toxin detected with anti-HlyA antibodies, integrin subunits with their own antibodies (near-infrared fluorescence); only the target purified

Experiment [1] addresses T1, integrin αL subunit (CD11a), as subunit of recombinant human integrin αLβ2 (human) (UniProt P20701).
T1 sequence: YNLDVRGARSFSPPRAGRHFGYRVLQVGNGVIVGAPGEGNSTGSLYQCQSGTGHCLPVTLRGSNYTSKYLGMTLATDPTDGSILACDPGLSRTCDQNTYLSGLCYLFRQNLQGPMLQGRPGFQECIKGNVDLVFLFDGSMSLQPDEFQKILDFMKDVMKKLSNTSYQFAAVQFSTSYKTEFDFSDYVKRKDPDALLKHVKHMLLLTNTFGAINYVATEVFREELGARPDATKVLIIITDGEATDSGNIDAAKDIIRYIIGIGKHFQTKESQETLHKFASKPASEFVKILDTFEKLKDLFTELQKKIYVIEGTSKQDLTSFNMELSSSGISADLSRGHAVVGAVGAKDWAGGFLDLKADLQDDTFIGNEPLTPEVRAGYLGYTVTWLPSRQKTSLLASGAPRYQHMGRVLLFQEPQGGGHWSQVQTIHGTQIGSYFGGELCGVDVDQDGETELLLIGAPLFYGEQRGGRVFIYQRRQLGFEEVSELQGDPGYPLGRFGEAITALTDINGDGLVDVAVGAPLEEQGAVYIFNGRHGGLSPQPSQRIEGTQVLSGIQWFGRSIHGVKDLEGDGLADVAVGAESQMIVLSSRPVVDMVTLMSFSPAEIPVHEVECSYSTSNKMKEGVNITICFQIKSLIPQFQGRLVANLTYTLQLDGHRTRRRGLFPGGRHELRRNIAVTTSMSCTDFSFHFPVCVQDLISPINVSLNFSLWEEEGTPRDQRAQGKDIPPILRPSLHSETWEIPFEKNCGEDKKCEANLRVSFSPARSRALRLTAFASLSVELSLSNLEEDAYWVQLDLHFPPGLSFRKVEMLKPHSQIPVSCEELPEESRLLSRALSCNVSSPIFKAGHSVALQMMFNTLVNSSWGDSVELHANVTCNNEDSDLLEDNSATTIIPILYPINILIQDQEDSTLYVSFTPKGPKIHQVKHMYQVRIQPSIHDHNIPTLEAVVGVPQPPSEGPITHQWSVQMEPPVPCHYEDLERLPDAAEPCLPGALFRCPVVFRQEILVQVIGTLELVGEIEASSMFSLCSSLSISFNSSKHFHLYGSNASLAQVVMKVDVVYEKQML

Experiment [2] deals with integrin αX subunit (CD11c), as subunit of recombinant human integrin αXβ2 (human) (UniProt P20702).
Experiment [3] has as its target β2 integrin β subunit (CD18), as subunit of recombinant human integrin αLβ2, αMβ2 and αXβ2 (human) (UniProt P05107).

In the case of “Escherichia coli hemolysin (HlyA) (from UniProt P09983)”, the binding entry is reported as “no binding (tested: 1 μg/ml)” in experiment [1], “no binding (tested: 1 μg/ml)” in experiment [2] and “binds” in experiment [3].
